Results are given in words; binding and its absence hold for the method and conditions named. Binding seen in cells or lysates may run through a third protein. Binding calls can cover weak binding; strength is not graded here. For some of these results: Sequences can lack the tags named with a protein.
What was measured:
[1] = biological target: Myc-tagged human wild-type PINK1 (pBOS-3×-Myc-hPINK1-WT) (human) (UniProt Q9BXM7); assay: co-IP; HEK293 cells transfected 48 h with Myc-PINK1 and/or hTERT-HA; total cell lysates immunoprecipitated with anti-Myc antibody, immunoblotted; lysis buffer 50 mM Tris pH 7.4, 1.0% Nonidet P-40, 150 mM NaCl, 10% glycerol; 4 °C
[2] = biological target: Myc-tagged human wild-type PINK1 (pBOS-3×-Myc-hPINK1-WT) (human) (UniProt Q9BXM7); assay: co-IP; HEK293 cells transfected 48 h with Myc-PINK1 and/or hTERT-HA; lysates separated into cytosolic and membrane organelle fractions, each immunoprecipitated with anti-Myc antibody, immunoblotted with anti-HA
[3] = biological target: T1, FLAG-tagged mitochondrial processing peptidase β (FLAG-MPPβ) (UniProt O75439); assay: co-IP; HEK293 cells transfected 48 h with PINK1-Myc and FLAG-MPPβ, with or without hTERT-HA, or with or without hTERT-siRNA and 40 μM anisomycin for 30 h; lysates immunoprecipitated with anti-FLAG antibody, immunoblotted
T1 sequence: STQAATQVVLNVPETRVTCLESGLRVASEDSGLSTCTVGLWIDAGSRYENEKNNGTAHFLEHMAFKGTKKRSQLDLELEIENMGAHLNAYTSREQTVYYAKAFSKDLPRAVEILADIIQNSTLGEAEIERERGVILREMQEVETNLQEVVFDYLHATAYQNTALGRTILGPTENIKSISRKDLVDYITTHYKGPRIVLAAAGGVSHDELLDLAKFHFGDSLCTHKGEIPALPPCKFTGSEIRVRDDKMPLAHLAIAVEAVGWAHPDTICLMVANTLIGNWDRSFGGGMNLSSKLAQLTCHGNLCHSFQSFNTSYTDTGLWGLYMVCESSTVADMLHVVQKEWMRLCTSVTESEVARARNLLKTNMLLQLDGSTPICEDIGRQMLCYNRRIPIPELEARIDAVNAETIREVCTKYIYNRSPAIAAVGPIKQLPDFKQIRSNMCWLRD

Protein sequences, listed by entry. Tags and fused reporters are not part of them. Lines headed by an entry give the natural chain unless they say otherwise; changes in a name come on top.
UniProt Q9BXM7: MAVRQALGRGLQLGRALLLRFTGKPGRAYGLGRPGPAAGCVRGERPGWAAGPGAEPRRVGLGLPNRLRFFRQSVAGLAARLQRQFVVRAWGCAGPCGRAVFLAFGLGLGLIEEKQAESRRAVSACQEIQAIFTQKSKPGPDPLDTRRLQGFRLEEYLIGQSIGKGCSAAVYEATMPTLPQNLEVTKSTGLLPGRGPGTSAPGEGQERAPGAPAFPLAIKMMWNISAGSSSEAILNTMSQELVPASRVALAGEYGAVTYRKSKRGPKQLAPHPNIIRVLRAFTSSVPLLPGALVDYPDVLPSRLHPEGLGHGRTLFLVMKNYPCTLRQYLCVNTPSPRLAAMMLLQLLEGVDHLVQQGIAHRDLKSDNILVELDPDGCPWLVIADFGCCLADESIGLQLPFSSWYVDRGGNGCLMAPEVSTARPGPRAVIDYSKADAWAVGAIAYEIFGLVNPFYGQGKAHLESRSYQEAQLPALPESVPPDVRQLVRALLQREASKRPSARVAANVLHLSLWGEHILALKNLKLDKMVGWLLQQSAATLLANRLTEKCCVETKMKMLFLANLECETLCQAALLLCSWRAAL
UniProt O14746: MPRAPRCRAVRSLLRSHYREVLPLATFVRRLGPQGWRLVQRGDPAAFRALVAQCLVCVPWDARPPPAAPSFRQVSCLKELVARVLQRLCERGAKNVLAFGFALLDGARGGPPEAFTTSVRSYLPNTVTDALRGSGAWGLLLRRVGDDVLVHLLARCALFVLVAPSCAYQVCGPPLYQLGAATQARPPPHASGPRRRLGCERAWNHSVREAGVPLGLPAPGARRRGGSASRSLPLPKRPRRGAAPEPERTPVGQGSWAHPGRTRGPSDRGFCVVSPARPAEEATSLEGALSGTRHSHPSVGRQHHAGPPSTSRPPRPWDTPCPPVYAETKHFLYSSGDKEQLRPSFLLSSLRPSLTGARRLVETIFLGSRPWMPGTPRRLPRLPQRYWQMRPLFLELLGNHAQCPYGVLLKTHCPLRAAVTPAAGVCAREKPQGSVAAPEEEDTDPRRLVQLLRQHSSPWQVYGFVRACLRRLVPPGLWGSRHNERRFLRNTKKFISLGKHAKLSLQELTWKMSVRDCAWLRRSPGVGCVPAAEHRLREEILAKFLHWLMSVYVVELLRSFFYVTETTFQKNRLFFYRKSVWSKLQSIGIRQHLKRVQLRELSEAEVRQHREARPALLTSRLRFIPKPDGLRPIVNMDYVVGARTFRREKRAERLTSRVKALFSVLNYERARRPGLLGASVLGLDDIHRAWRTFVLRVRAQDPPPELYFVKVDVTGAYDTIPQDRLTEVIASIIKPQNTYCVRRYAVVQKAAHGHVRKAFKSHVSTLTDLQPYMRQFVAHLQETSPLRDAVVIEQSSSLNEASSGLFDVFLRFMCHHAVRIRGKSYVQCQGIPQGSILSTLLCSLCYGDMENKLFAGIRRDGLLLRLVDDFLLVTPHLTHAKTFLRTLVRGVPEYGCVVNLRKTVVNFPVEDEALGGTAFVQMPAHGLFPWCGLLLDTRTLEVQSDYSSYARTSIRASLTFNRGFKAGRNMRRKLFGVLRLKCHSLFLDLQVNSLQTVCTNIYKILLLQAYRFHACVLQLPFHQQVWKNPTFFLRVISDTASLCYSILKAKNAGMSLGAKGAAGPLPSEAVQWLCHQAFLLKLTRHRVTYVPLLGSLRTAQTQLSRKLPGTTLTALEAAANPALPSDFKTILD

[4] = biological target: T1, FLAG-tagged mitochondrial processing peptidase β (FLAG-MPPβ); assay: co-IP; HEK293 cells transfected (24 h or 48 h) with FLAG-MPPβ and Myc-PINK1 or hTERT-HA; total cell lysates immunoprecipitated with anti-FLAG antibody, immunoblotted

| Substance | binding [1] | binding [2] | binding [3] | binding [4] |
| --- | --- | --- | --- | --- |
| HA-tagged human telomerase reverse transcriptase (hTERT-HA) (from UniProt O14746 1-1132) | binds | binds | – | – |
| Myc-tagged human wild-type PINK1 (pBOS-3×-Myc-hPINK1-WT) (from UniProt Q9BXM7) | – | – | binds | binds |
